Measured values reported in patent US20210009668A1 (ROCHE DIAGNOSTICS OPERATIONS, published 2021).
No constants are given. Whether binding was seen depends on the method and setting. Some results given as binding are weak or reduced against the parent protein; the word gives no strength.

Target: T1, recombinant human cardiac troponin T (human, UniProt P45379 2-298)
T1 construct: In the ECL assay the cTnT came from the Troponin T hs CalSet calibrator; also called cTnT; TnT
Assay: SPR kinetics, compared with mutants 9, 17 and 19

binding: binds
B1: anti-cTnT Fab mutant 12 (Y34I, F60W, Y104F) (Fab, V domains shown)
VH: EVQLQQSGPELVKPGASVKMSCKASGYTFTDYIMKWVKQSHGKSLEWIGDINPNNGETWYNQKFKDKATLTVDKSSSTAYMQLNSLTSEDSAVYYCATRVFDFWGQGTTLTVSS
VL: DIVLTQSPASLAVSLGQRATISCKASQSVDYDGTSYMNWFQQKAGQPPKRLIYAASNLESGIPARFSGRGSGTDFALNIHPVEEEDAATYYCQQSNEDPYTFGGGTKLEIK
notes: also called combination 12; combination "12"
